Measurements as given in publication PMC5852537.
No constants are given. Whether binding was seen depends on the method and setting. For part of these data: Binding can be weak; no strength is given.

Experiments:
[1] = target: T1, AtDRIP2 (131-C end) (Arabidopsis) (UniProt Q94AY3); assay: two-hybrid; yeast AH109; LlDREB2B in pGADT7, AtDRIP1 (125-C end) or AtDRIP2 (131-C end) in pGBKT7; selection medium of this experiment not told (Supplementary Figure S4)
T1 sequence: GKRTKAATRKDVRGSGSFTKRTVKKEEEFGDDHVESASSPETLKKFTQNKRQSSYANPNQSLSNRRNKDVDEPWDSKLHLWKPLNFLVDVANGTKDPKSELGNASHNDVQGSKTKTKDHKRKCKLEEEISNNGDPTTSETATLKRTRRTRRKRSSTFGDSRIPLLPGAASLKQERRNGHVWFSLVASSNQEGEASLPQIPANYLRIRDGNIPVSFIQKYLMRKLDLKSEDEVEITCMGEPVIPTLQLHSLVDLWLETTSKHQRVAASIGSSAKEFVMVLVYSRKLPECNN

[2] = target: T2, AtDRIP1 (125-C end) (Arabidopsis) (UniProt Q9M9Y4); assay: as above
T2 sequence: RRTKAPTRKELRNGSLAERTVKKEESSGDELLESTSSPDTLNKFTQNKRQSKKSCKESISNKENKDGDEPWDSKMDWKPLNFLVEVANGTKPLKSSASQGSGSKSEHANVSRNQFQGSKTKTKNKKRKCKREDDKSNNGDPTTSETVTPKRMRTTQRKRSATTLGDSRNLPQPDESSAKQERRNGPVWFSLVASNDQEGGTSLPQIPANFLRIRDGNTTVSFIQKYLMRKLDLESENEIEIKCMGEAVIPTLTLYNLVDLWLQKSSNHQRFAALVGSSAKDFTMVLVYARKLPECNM

AtBPM2 (Arabidopsis) = target: T3, AtBPM2 (Arabidopsis) (UniProt Q9M8J9); assay: two-hybrid; yeast AH109; DREB2 in pGADT7, BPM2 in pGBKT7; growth on SD medium lacking Leu, Trp, His and Ade (SD-LWHA)
T3 sequence: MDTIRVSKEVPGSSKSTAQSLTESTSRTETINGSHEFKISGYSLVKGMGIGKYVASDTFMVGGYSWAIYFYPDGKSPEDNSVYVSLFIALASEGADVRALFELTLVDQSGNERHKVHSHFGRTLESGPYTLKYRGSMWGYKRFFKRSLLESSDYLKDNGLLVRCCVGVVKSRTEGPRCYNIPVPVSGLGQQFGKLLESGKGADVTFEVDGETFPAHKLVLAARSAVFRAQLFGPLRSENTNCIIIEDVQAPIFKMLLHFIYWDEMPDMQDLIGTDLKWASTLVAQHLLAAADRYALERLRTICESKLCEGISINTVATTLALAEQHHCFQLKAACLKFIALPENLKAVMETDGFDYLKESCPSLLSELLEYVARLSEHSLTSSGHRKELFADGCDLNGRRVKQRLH

- binding [1]: binds
- binding [2]: binds
- binding (AtBPM2 (Arabidopsis)): no binding
Substance: LlDREB2B (Lilium longiflorum)
